Screen size: about 300,000 compounds; about 3,700 (1.2%) were called active. This list was built around the results that the source calls inconclusive (neither active nor inactive); the mix of calls is not that of the screen. Calls follow the shape of the full dose curve; tested in HEK293 cells. Potencies of inconclusive entries are doubtful fits and often do not repeat.
assay: qHTS for Inhibitors of binding or entry into cells for Lassa Virus; settings: Lassa virus pseudotype entry inhibition, cell reporter; activity change, negative = inhibition: at 37.9 µM (top of the series) unless noted; also: nearly all actives have a fitted effect of over 50% in size
% is scaled to controls: 0 for no effect and ±100 for the full control effect; potency is read from the fitted curve at half-maximal effect.

For CCc1ccc(/C=N/NC(=S)NCCc2ccccc2)cc1, which Potency is on record?
Its Potency is inconclusive: 5.01 µM [inhibitor, partial curve].

For COc1cc(/C=N/NC(=Nc2ccc(C)cc2)c2nc3ccccc3s2)ccc1O, which Potency is on record?
The Potency was active: 13 µM.

With Cc1ccc(N(CC(O)Cn2c3ccccc3c3ccccc32)S(=O)(=O)c2ccc(F)cc2)cc1 (stereo unspecified) as the compound, how does the “activity change, negative = inhibition” value read?
The value was inactive: -18.6% [at 46.1 µM].

Which Potency does the source give for O=C(N=Nc1c(O)[nH]c2ccccc12)Nc1ccccc1 here?
Its Potency is inconclusive: 20 µM [inhibitor, single point].

For Cn1cc(S(=O)(=O)N2CCCCCC2)cc1C(=O)N1CCN(c2ccccc2F)CC1, which Potency is on record?
The Potency was inconclusive: 3.55 µM [inhibitor, single point].

For O=C(NC1CCCCC1)c1ccc(-c2ccccc2[N+](=O)[O-])o1, which “activity change, negative = inhibition” value is on record?
Its value is inactive: -19.3% [at 46.1 µM].

With CCC(NC(C)C)C(O)c1ccc(O)c(O)c1 (stereo unspecified) as the compound, how does the Potency read?
The Potency was inconclusive: 0.73 µM [inhibitor, full curve, poor fit].

For CSc1nc(N)nc(SCC(=O)C23CC4CC(CC(C4)C2)C3)c1C#N, which “activity change, negative = inhibition” value is on record?
Its value is inactive: -5.82%.

With CCOc1cccc2sc(=NC(=O)CCS(=O)(=O)c3ccc(F)cc3)n(C)c12 as the compound, how does the Potency read?
Its Potency is inconclusive: 35.5 µM [inhibitor, partial curve, poor fit].

With CSc1ccccc1NC(=O)CN(Cc1ccc(Cl)cc1)S(C)(=O)=O as the compound, how does the Potency read?
Its Potency is inconclusive: 18.3 µM [inhibitor, single point].

Which Potency does the source give for CC(=O)OCCNC(=O)c1cccnc1 here?
Its Potency is inconclusive: 2.59 µM [activator, partial curve, poor fit].

For COc1cc(/C=N/NC(=O)CNC(=O)c2ccc3c(c2)OCCO3)ccc1O, which “activity change, negative = inhibition” value is on record?
Its value is inactive: 13.3%.

Which “activity change, negative = inhibition” value does the source give for COc1ccc(-n2nc(C(=O)NCC(=O)N3CCN(c4ccccn4)CC3)c3ccccc3c2=O)cc1OC here?
The value was inactive: -15.6% [at 46.1 µM].

With O=C(Nc1noc2ccccc12)c1cccc(Cl)c1Cl as the compound, how does the Potency read?
The Potency was inconclusive: 1.58 µM [activator, partial curve, poor fit].

With COc1ccc(CNCCC(c2ccc(C)cc2)c2ccco2)cc1 (stereo unspecified) as the compound, how does the “activity change, negative = inhibition” value read?
The value was inactive: -19.9% [at 46.1 µM].

For COc1ccc(CNC(=O)c2cc3sccc3n2Cc2ccc(F)cc2)cc1, which Potency is on record?
The Potency was inconclusive: 35.5 µM [inhibitor, single point].

For Cc1ccc(OCc2ccccc2C)c([N+](=O)[O-])n1, which Potency is on record?
Its Potency is inconclusive: 10 µM [activator, partial curve, poor fit].

For COc1cc(-n2nc(C)c3c2OC(N)=C(C#N)C3c2ccccc2)c(Cl)c(Br)c1O (stereo unspecified), which “activity change, negative = inhibition” value is on record?
The value was inactive: -0.372%.

For COCCCN1C(=O)c2[nH]nc(-c3cc(C)ccc3O)c2C1c1ccc(F)cc1 (stereo unspecified), which Potency is on record?
Its Potency is inconclusive: 2.24 µM [inhibitor, full curve, poor fit].

With O=C(Nc1ccccc1-c1nnn(CC(=O)N2CCCc3ccccc32)n1)c1ccco1 as the compound, how does the Potency read?
Its Potency is inconclusive: 0.164 µM [inhibitor, full curve, poor fit].

Which “activity change, negative = inhibition” value does the source give for CCn1nc(C(=O)OCC(=O)c2cc(C)n(Cc3cccs3)c2C)c2ccccc2c1=O here?
Its value is inactive: 6.28%.

With COc1ccc(NC(=O)Cn2c(=O)n(Cc3ccco3)c(=O)c3sc4ccccc4c32)c(OC)c1 as the compound, how does the Potency read?
Its Potency is inconclusive: 20 µM [inhibitor, single point].

Which Potency does the source give for COc1cc(/C=C2\SC(=Nc3ccc(O)cc3)NC2=O)cc(OC)c1O here?
Its Potency is inconclusive: 17.8 µM [inhibitor, single point].

Which Potency does the source give for Cc1noc(C)c1S(=O)(=O)NC1CCCc2ccccc21 (stereo unspecified) here?
The Potency was inconclusive: 0.259 µM [inhibitor, single point].

For CC(C)C1CC(CCNCc2ccc(N(C)C)cc2)(c2ccccc2)CCO1 (stereo unspecified), which Potency is on record?
The Potency was inconclusive: 31.6 µM [inhibitor, single point].

For COc1cc(-c2nnc3sc(C4CCCCC4)nn23)cc(OC)c1OC, which Potency is on record?
Its Potency is inconclusive: 7.3 µM [inhibitor, partial curve, poor fit].

For CC(C)C1(C)C(=O)N=C2c3ccccc3C(=O)N21 (stereo unspecified), which Potency is on record?
Its Potency is inconclusive: 32.6 µM [inhibitor, partial curve, poor fit].

With Cc1ccc2cc(C)c3nnc(SCC(=O)Nc4nc5c(s4)CCCC5)n3c2c1C as the compound, how does the “activity change, negative = inhibition” value read?
The value was inactive: 1.83%.

For COc1ccc(NC(=O)c2ccc3ccccc3c2OC)cc1, which Potency is on record?
Its Potency is inconclusive: 35.5 µM [inhibitor, single point].

For Cc1ccc(-c2cc(C(=O)Nc3cccnc3)[nH]n2)c(O)c1C, which Potency is on record?
The Potency was inconclusive: 35.5 µM [inhibitor, single point].

With Cc1c(C(=O)c2ccc(F)cc2)c2ccccn2c1CCc1ccccn1 as the compound, how does the “activity change, negative = inhibition” value read?
Its value is inactive: 8.31% [at 46.1 µM].

For CN1CCc2cccc3c2[C@H]1Cc1ccc(O)c(O)c1-3, which Potency is on record?
The Potency was inconclusive: 8.2 µM [inhibitor, partial curve].

With COc1ccc(N(CC(=O)N2CCN(c3ccccc3F)CC2)S(=O)(=O)c2c(C)noc2C)cc1 as the compound, how does the Potency read?
The Potency was “inactive”.

With Cc1nc(NCCCn2ccnc2)c2oc3ccccc3c2n1 as the compound, how does the “activity change, negative = inhibition” value read?
The value was inactive: 17.9%.

For Nc1cc(-c2cccc([N+](=O)[O-])c2)[nH]n1, which “activity change, negative = inhibition” value is on record?
Its value is inactive: 18%.

For Cc1ccccc1NC(=O)CSc1nc2ccc(NC(=O)CCc3ccccc3)cc2s1, which Potency is on record?
The Potency was inconclusive: 35.5 µM [activator, partial curve, poor fit].

For Cc1ccc(NC(=S)NC2CCCCC2)cc1S(=O)(=O)N(C)C, which Potency is on record?
The Potency was inconclusive: 20 µM [inhibitor, single point].

For COc1cc(/C=C(\C#N)c2nc3ccccc3s2)cc([N+](=O)[O-])c1O, which “activity change, negative = inhibition” value is on record?
Its value is inactive: 0.0101%.

For Cn1c(N)c(C(=O)c2ccc(Cl)cc2)c(=O)n(C)c1=O, which Potency is on record?
Its Potency is inconclusive: 6.31 µM [activator, single point].

With Cc1ccc(C(=O)Nc2cccc([N+](=O)[O-])c2)cc1S(=O)(=O)Nc1ccc(NC(=O)c2ccccc2)cc1 as the compound, how does the Potency read?
The Potency was inconclusive: 11.2 µM [inhibitor, partial curve].

With COC(=O)c1sccc1S(=O)(=O)N(CC(=O)Nc1ccccc1C)c1ccc(Cl)cc1 as the compound, how does the Potency read?
Its Potency is inconclusive: 6.31 µM [inhibitor, full curve, poor fit].

With CC(=O)N1CCN(c2ccc(NC(=O)c3ccc(C(C)(C)C)cc3)cc2)CC1 as the compound, how does the Potency read?
Its Potency is inconclusive: 8.2 µM [inhibitor, single point].

For CC(C)C(OC(=O)c1cccs1)C(=O)NCc1ccco1 (stereo unspecified), which “activity change, negative = inhibition” value is on record?
The value was inactive: -2.59%.

For O=C(CCCOc1ccccc1)N1CCCCC1, which Potency is on record?
Its Potency is inconclusive: 10 µM [inhibitor, partial curve, poor fit].

Which “activity change, negative = inhibition” value does the source give for Nc1ccc2oc(-c3ccccc3Br)nc2c1 here?
Its value is inactive: 14% [at 46.1 µM].

With Cc1ccc(OCC(=O)N(C)CC(=O)Nc2ccc(F)cc2)c([N+](=O)[O-])n1 as the compound, how does the “activity change, negative = inhibition” value read?
The value was inactive: 12.5% [at 46.1 µM].

With CC12CCC(=O)N1C(C(=O)NNC(=O)c1ccc(Cl)cc1)CS2 (stereo unspecified) as the compound, how does the “activity change, negative = inhibition” value read?
The value was inactive: 16.6%.

With COC(=O)c1ccc(SCC(=O)NC2CCCC2)c([N+](=O)[O-])c1 as the compound, how does the Potency read?
The Potency was inconclusive: 29.1 µM [activator, partial curve, poor fit].

With Cc1cc(C)n2nc(SC(C)C(=O)N(C)C3CCCCC3)nc2n1 (stereo unspecified) as the compound, how does the Potency read?
Its Potency is inconclusive: 6.31 µM [inhibitor, single point].

With Cc1ccc(C2=NN(C(=O)CN3C(=O)c4ccccc4S3(=O)=O)C(c3ccco3)C2)cc1 (stereo unspecified) as the compound, how does the Potency read?
Its Potency is inconclusive: 15.8 µM [inhibitor, single point].

Which Potency does the source give for COc1cccc(Nc2ncnc3c2cnn3C)c1 here?
Its Potency is inconclusive: 29.1 µM [activator, single point].

With CCOC(=O)c1cc(-c2ccc(N3CCOCC3)cc2)nn1-c1ccccc1 as the compound, how does the Potency read?
Its Potency is inconclusive: 29.1 µM [inhibitor, single point].

With COc1ccc(C(=O)NCc2nnc(SCC(=O)c3ccccc3)n2C)cc1 as the compound, how does the Potency read?
Its Potency is inconclusive: 2.82 µM [inhibitor, single point].

For COc1ccc(C2(c3ccc(OC)cc3)NC(=O)N(CC(=O)Nc3ccc(OC(F)F)cc3)C2=O)cc1, which Potency is on record?
Its Potency is inconclusive: 35.5 µM [inhibitor, single point].

For COc1ccc(CN2CC3CC(C2)c2cccc(=O)n2C3)cc1OC (stereo unspecified), which “activity change, negative = inhibition” value is on record?
Its value is inactive: 15.9%.

Which “activity change, negative = inhibition” value does the source give for O=C(Cn1cncn1)NCc1cc(F)ccc1F here?
The value was inactive: 24.6% [at 46.1 µM].

Which Potency does the source give for COc1ccc2c(c1)-c1c(sn(-c3ccc(OC)c(OC)c3)c1=S)C(C)(C)N2 here?
The Potency was inconclusive: 11.2 µM [inhibitor, single point].

Which “activity change, negative = inhibition” value does the source give for Cc1ccc(NC(=O)c2cc(N3C(=O)C=CC3=O)ccc2N2CCOCC2)cc1Cl here?
Its value is inactive: -7.82%.

With Cc1ccc2oc(=O)c3cc(C(=O)Nc4ccc(C)c(F)c4)sc3c2c1 as the compound, how does the Potency read?
The Potency was inconclusive: 10 µM [activator, single point].

For CS(=O)(=O)n1nc(-c2cccnc2)nc1NCc1ccccc1, which Potency is on record?
Its Potency is inconclusive: 17.8 µM [inhibitor, single point].

For COc1cccc(NC(=O)CSc2nccn2C2CCCC2)c1, which “activity change, negative = inhibition” value is on record?
Its value is inactive: 10.9% [at 46.1 µM].

For O=C(Cn1cc(S(=O)(=O)Cc2cccc(Cl)c2)c2ccccc21)Nc1ccccc1Cl, which “activity change, negative = inhibition” value is on record?
The value was inactive: 1.1% [at 46.1 µM].

For NC(=O)C1CCCN(C(=S)Nc2cccc3ccccc23)C1 (stereo unspecified), which Potency is on record?
The Potency was inconclusive: 35.5 µM [inhibitor, single point].

Which “activity change, negative = inhibition” value does the source give for CCN(CC)S(=O)(=O)c1cccc(NC(=O)COC(=O)/C=C/c2ccco2)c1 here?
The value was inactive: 1.9%.

Which Potency does the source give for COc1ccc(CNCCC(c2ccc3c(c2)OCO3)c2ccccc2OC)cc1 (stereo unspecified) here?
Its Potency is inconclusive: 35.5 µM [inhibitor, single point].

Which Potency does the source give for Cc1cccn2c(=O)c(C(=O)NCCc3ccccc3)cnc12 here?
The Potency was inconclusive: 3.16 µM [activator, single point].

With Cc1cc2ncc(S(=O)(=O)C(C)(C)C)c(N)n2n1 as the compound, how does the Potency read?
Its Potency is inconclusive: 8.91 µM [activator, partial curve].

For Cc1ccccc1NC(=S)NNC(=O)c1ccoc1C, which “activity change, negative = inhibition” value is on record?
Its value is inactive: 48.6% [at 14.3 µM].

Which Potency does the source give for CCCCC12CN3CC(C)(CN(C1)C3c1ccc(O)c(OC)c1)C2=O (stereo unspecified) here?
Its Potency is inconclusive: 0.794 µM [inhibitor, full curve, poor fit].

With COc1ccc(Cn2cc(C(=O)c3ccc(C)c(C)c3)c(=O)c3ccccc32)cc1 as the compound, how does the “activity change, negative = inhibition” value read?
Its value is inactive: -29.3% [at 46.1 µM].

With Nc1ccccc1OCCOc1ccccc1N as the compound, how does the “activity change, negative = inhibition” value read?
Its value is inactive: 29.6%.
